Results on two molecules are retold here after paper PMC7337926.

The chains behind the UniProt entries cited, without tags or fusion partners. Where a name states a change or a piece, a line headed by the entry shows the natural chain unless it says otherwise.
UniProt F4JLJ9: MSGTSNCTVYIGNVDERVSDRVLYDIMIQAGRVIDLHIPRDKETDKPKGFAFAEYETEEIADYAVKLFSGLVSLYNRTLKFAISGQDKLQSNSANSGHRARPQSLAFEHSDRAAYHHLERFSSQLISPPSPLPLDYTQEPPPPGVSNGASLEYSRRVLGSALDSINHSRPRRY

The target in assay [1] is GFP-tagged RBM7 (transgenic plants) (Arabidopsis thaliana) (UniProt F4JLJ9). As to the kind of experiment: affinity purification with mass spectrometry; GFP-tagged ZCCHC8A, ZCCHC8B or RBM7 as baits from flower extracts (50 mM Tris HCl pH 8.0, 50 mM NaCl, 1% Triton X-100), anti-GFP magnetic microbeads, LC-MS/MS; control IPs in Col-0.
Assay [2] concerns the target GFP-tagged ZCCHC8A (transgenic plants) (Arabidopsis thaliana). Described as above.
Assay [3] addresses GFP-tagged ZCCHC8B (transgenic plants) (Arabidopsis thaliana). Described as above.
Assay [4] has as its target T1, FLAG-tagged SERRATE (FLAG-SE) (Arabidopsis thaliana), Q9ZVD0.
T1 chain: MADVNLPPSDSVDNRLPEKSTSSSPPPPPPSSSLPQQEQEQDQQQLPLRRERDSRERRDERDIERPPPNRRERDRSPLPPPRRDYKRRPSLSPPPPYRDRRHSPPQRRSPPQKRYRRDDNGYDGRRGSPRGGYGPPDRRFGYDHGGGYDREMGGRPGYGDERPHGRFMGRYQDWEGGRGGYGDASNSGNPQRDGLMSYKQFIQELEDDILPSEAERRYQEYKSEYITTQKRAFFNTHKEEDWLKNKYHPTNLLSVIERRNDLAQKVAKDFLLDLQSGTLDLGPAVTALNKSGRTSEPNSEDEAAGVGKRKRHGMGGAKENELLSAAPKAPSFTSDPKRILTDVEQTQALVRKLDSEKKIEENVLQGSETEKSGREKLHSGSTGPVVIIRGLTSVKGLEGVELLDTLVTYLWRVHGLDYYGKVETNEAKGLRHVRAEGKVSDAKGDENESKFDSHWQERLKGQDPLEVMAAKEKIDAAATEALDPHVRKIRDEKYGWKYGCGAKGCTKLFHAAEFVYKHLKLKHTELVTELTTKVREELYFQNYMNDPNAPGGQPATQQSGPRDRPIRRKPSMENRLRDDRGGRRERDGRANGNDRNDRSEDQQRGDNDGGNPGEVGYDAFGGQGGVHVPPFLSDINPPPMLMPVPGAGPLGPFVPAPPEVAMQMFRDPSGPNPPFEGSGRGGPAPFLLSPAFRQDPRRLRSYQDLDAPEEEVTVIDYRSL
The experiment in a line: affinity purification with mass spectrometry; FLAG-SE as bait from flower extracts (50 mM Tris HCl pH 8.0, 50 mM NaCl, 1% Triton X-100), anti-FLAG magnetic microbeads, LC-MS/MS; mock IPs in Col-0. Conditions: remark: other sources report otherwise.

Results are given in words; binding and its absence hold for the method and conditions named. In cells and extracts the contact can be indirect. Here binding means that the protein was enriched with, or labelled near, the bait; the list need not be complete. For some of these results: No binding means not detected with the bait. For some of these results: Tags and fused reporters may be left off the sequences shown.

B1: SERRATE (endogenous) (protein, UniProt Q9ZVD0 1-720)
chain: T1 chain
As to B1, the binding result in assay [1], in assay [2] and in assay [3] was “binds” throughout.

B2: HYPONASTIC LEAVES 1 (HYL1), O04492 1-419 (protein)
chain: MTSTDVSSGVSNCYVFKSRLQEYAQKYKLPTPVYEIVKEGPSHKSLFQSTVILDGVRYNSLPGFFNRKAAEQSAAEVALRELAKSSELSQCVSQPVHETGLCKNLLQEYAQKMNYAIPLYQCQKVETLGRVTQFTCTVEIGGIKYTGAATRTKKDAEISAGRTALLAIQSDTKNNLANYNTQLTVLPCEKKTIQAAIPLKETVKTLKARKAQFKKKAQKGKRTVAKNPEDIIIPPQPTDHCQNDQSEKIETTPNLEPSSCMNGLKEAAFGSVETEKIETTPNLEPPSCMNGLKEAAFGSVETEKIETTPNLEPPSCMNGLKEAAFGSVETEKIETTPNLEPSSCMNGLKEAAFGSVETEKIETTPNLEPPSCMNGLKEAAFGSVETEKIETTPNLESSSCMSGLKEAAFGSVETEASHA
For B2, the binding entry in assay [4] is “no binding”.
